Data: US12559480B2, “Methods of treatment using phenyl indole allosteric inhibitors of P97 ATPase” (University of Pittsburgh—Of the Commonwealth System of …, priority 2015, dated 2026)
For at least one compound, name, drawing or mass did not settle the structure.

Chains of the proteins cited; added tags and fusions are not shown.
UniProt P55072, whole entry: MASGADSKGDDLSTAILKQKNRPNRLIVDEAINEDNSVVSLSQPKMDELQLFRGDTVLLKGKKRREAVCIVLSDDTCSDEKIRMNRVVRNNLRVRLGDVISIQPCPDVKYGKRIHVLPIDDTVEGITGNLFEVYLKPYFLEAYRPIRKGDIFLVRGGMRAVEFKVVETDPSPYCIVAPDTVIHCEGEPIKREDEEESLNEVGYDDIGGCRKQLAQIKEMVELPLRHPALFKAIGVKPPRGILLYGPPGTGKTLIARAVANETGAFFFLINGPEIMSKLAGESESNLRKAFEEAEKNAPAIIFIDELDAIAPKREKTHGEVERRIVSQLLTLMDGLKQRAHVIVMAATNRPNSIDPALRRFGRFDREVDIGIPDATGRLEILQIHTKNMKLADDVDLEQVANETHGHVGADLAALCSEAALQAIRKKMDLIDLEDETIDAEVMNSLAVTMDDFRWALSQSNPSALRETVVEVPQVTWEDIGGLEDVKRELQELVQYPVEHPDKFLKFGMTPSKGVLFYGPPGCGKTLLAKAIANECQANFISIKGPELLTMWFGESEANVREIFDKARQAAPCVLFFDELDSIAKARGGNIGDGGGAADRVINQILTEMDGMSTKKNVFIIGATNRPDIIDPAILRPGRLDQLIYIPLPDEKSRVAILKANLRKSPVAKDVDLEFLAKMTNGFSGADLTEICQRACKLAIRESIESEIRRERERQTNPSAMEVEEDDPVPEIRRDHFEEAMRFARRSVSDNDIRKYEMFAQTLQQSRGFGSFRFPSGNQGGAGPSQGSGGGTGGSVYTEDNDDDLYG

Target: p97 ATPase WT (Homo sapiens (Human), UniProt P55072)
Assay: p97 ADP-Glo assay
Format: biochemical
Conditions: compound 13 versus compound 12
Text: ADP-Glo™ (Promega Corp.) is a bioluminescent, homogeneous assay that measures ADP formed from a biochemical reactions. Because of its high sensitivity, the assay is suitable for monitoring enzyme activities at very early substrate conversions requiring very low amount of enzymes.
The ADP-Glo assay can be conducted as described in Chou, T.-F.; Bulfer, S. L.; Weihl, C.

SMILES: CC(C)N1CCN(CCNC2CCN(c3cccc(-c4cc5cc(S(F)(F)(F)(F)F)ccc5[nH]4)c3)CC2)CC1 [compound 13, 1-{3-[5-(Pentafluoro-λ^6-sulfanyl)-1H-indol-2-yl]phenyl}-N-{2-[4-(propan-2-yl)piperazin-1-yl]ethyl}piperidin-4-amine]
- reduction of p97 inhibition on replacement of trifluoromethyl with pentafluorosulfanyl: ~4 fold
